## Results of single-concentration screens

Protein sequences, listed by entry. Tags and fused reporters are not part of them. Residues count along the entry.
UniProt I6X8D2, whole entry: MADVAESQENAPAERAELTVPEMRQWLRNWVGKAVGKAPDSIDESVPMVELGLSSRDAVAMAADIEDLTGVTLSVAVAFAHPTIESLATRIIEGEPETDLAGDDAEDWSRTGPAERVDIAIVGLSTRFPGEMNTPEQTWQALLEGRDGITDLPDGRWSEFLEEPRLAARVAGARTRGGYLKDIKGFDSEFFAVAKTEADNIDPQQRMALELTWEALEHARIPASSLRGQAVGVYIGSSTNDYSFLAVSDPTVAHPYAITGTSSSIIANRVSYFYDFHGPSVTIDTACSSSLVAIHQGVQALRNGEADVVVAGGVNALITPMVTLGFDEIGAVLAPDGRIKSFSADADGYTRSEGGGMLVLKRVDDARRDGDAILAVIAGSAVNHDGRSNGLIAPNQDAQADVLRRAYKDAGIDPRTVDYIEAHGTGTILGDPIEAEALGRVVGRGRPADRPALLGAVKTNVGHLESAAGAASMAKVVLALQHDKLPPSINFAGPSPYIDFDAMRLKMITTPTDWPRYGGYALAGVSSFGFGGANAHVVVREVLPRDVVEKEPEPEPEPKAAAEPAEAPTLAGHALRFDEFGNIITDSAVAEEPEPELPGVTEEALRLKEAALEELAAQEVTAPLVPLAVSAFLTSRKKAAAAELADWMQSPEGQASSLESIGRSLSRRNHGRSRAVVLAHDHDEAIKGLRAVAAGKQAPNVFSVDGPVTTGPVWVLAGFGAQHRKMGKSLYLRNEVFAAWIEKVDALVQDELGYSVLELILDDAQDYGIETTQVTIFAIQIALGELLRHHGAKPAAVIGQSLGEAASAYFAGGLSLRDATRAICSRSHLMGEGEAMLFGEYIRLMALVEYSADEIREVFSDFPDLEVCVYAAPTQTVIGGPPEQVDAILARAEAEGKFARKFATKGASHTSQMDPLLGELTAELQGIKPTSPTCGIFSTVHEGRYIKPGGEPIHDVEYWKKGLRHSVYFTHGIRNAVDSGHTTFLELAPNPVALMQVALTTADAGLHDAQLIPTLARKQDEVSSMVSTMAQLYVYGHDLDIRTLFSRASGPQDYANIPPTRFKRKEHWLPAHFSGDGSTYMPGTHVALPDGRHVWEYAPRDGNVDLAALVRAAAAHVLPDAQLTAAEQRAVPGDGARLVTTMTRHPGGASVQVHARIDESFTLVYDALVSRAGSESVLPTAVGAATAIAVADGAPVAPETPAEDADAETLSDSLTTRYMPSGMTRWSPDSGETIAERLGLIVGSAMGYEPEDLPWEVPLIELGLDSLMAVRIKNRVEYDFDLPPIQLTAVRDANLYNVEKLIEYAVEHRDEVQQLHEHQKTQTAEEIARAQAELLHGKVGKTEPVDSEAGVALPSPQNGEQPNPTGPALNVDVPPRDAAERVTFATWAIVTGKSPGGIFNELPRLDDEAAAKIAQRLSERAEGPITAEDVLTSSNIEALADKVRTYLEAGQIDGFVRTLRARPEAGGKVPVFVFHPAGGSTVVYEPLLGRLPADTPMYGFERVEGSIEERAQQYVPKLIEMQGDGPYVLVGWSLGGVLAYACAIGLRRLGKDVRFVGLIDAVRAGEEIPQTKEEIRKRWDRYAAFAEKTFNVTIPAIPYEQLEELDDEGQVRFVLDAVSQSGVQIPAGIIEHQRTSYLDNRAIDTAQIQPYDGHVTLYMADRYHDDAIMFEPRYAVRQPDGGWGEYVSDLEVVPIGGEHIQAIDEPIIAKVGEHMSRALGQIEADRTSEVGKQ
UniProt Q8IDJ8, 1-583: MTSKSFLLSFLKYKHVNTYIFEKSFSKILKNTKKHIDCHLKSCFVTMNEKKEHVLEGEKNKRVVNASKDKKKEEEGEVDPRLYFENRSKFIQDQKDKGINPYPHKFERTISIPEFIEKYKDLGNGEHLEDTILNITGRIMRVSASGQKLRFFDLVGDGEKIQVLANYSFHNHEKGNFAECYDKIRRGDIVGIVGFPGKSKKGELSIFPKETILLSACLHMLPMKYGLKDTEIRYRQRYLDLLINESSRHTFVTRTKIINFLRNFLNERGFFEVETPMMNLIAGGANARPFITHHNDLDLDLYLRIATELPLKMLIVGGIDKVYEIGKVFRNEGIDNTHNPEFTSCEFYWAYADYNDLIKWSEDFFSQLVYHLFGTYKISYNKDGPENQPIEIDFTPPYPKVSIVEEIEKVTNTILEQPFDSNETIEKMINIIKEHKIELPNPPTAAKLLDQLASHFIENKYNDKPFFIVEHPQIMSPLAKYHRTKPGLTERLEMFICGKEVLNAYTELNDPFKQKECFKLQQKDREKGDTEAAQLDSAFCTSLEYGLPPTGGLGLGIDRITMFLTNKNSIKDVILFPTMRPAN
UniProt P9WNZ1, whole entry: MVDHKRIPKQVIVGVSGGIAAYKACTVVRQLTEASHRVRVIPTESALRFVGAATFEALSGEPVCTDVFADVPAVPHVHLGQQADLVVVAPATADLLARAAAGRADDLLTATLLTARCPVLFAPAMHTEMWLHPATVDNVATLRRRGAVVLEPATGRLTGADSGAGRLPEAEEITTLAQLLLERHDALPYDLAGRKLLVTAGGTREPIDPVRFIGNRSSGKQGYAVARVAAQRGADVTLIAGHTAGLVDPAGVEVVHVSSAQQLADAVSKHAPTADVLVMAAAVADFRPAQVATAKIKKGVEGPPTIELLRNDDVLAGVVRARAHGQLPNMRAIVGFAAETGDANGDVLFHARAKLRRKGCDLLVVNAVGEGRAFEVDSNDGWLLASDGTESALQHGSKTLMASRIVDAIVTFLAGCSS

From ChEMBL document CHEMBL3988442, “University of Dundee, Small-Polar-MMV Screening Library” (2021).

A: 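Assay of Toxoplasma gondii numbers, read through their beta-galactosidase reporter with a colour substrate. Compounds at 10 µM. Higher reads as fewer parasites (inferred from which compounds were picked for retests). Of about 67,000 compounds tested this way, about 260 (0.38%) reached 50% or more in at least one test.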
B: 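Polyketide synthase Pks13, Mycobacterium tuberculosis (UniProt I6X8D2). Enzyme assay of the thioesterase domain of polyketide synthase 13; the read-out is not stated. Tested at 30 µM. Higher reads as stronger inhibition (inferred from which compounds were picked for retests). Size under these conditions: about 67,000 compounds, about 300 of them at 50% or above in at least one test.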
C: 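Enzyme assay of the cytosolic lysyl-tRNA synthetase in 384-well plates, read by luminescence. Target: Lysine-tRNA ligase, Plasmodium falciparum 3D7 (UniProt Q8IDJ8). Concentration: 30 µM. Direction is inferred from only a few compounds that gave an IC50; most scored high, so higher reads as stronger inhibition. Of about 69,000 compounds tested this way, about 49 (0.071%) reached 50% or more in at least one test.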
D: 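Coenzyme A biosynthesis protein CoaBC, Mycobacterium tuberculosis (UniProt P9WNZ1). Enzyme assay of CoaBC with a phosphate dye (Biomol Green) read at 650 nm. Concentration: 30 µM. Direction is inferred from only a few compounds that gave an IC50; most scored high, so higher reads as stronger inhibition. Most strong results did not repeat in a second test. Of about 67,000 compounds tested this way, about 40 (0.06%) reached 50% or more in at least one test.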

Results are given as percent effect. The record does not define 0% and 100%; most values in the screen are far below 50% and negative numbers occur (in some assays of this library far below -100). The compounds are a random part of those screened. A dash means the value is not listed here; it may have been measured.

compound	A	B	C	D
CCN(CC)CCN(C)c1nc(-c2ccc(Cl)cc2)nc2c1CNC2	-17.05%	10.4%	1.06%	0.9756%
Cc1cnn(CC2CCCN2Cc2nnc(C3CC3)n2C)c1 (centres undefined)	4.04%	-15.57%	0.3082%	-4.826%
Cc1oc(-c2ccco2)nc1CC(=O)N1CCC(CCO)C1 (centres undefined)	5.211%	2.604%	10.37%	12.31%
CC1CN(C)CCN1Cc1cccc(C(=O)NCc2ccco2)c1 (centres undefined)	-2.406%	-10.16%	5.813%	-5.305%
Cc1nn2c(NCC(N)=O)cc(-c3ccccc3)nc2c1C	-10.29%	-12.93%	-0.1072%	2.82%
N#Cc1ccccc1N1CCC(Nc2nccnc2C#N)CC1	-1.452%	8.607%	2.881%	-4.39%
Cc1nc2c(C)cccc2cc1C(=O)N1CCC2(CC1)NCCNC2=O	-18.74%	2.299%	5.025%	0.6329%
Cc1cccc(C(C(=O)NCCCc2ccncc2)N(C)C)c1 (centres undefined)	-2.423%	-16.34%	5.542%	-3.727%
Cc1nnc(N2CCOC(Cn3cccn3)C2)c(C#N)c1C (centres undefined)	-6.21%	4.496%	3.699%	-1.33%
COCCN1CCOCC12CCN(C(=O)c1cccnc1)CC2.O=C(O)C(F)(F)F	-5.824%	-	-	-
CCN(Cc1nc(COC)no1)Cc1cccnc1NC	-17.09%	-16.83%	0.4131%	-0.7444%
Cc1ccc(CNC(=O)c2nc3c(o2)CN(C(=O)c2cccnc2)C3)o1	-	-2.636%	9.88%	3.583%
Cc1ccc(-c2csc(-c3cccc(C(=O)O)c3)n2)cc1	-18.64%	-5.174%	-1.551%	-6.683%
Cn1cnnc1C1CCCN(C(=O)c2n[nH]c3ccccc23)C1 (centres undefined)	-16.01%	-17.19%	6.147%	7.436%
Cc1nn(-c2ccccc2Cl)c(C)c1CCC(=O)NCCS(C)(=O)=O	1.963%	-0.8211%	0.636%	1.699%
CN1C(=O)CC(c2ccccc2)C12CCN(c1ncccn1)CC2 (centres undefined)	28.36%	-14.64%	4.15%	-2.709%
Cc1ccccc1C(C)N(C)Cc1nc2c(cnn2C)c(=O)[nH]1 (centres undefined)	6.706%	-12.81%	0.8567%	6.102%
Cc1cnc(NCc2cnn(C)c2)nc1-c1cnn(C)c1	-6.471%	-4.099%	-0.7684%	5.432%
O=C(O)C(F)(F)F.O=C(O)C(F)(F)F.[H][C@]12CCN(c3ncc(F)cn3)[C@@]1([H])C[C@@H](C(=O)NCc1cccnc1)O2	0.9613%	-	-	-
COc1ccsc1C(=O)N1CCCC(n2nc(C)nc2C)C1 (centres undefined)	-	-12.06%	-0.2015%	1.799%
CCc1nnc(CNCC2CCN(CC(O)c3ccccc3)CC2)o1 (centres undefined)	-42.58%	-11.82%	-6.194%	-2.089%
Cc1noc(C)c1CN1Cc2ccnn2CC(C(=O)NCC2CC2)C1 (centres undefined)	-	-18%	0.209%	3.299%
CNCC(=O)N1CCCC1c1n[nH]cc1-c1ccccc1F (centres undefined)	-	-7.208%	0.3509%	-1.399%
CN(CCOc1ccc(C#N)cc1)CC1CC1	25.63%	1.194%	-3.047%	5.251%
O=C(Cc1cc(-c2ccc3c(c2)OCO3)on1)NC1CCCC1	-0.5634%	9.939%	2.428%	3.361%
CCCc1nc(C)cc(NCCc2nnc(N)s2)n1	-26.58%	-17.17%	1.793%	3.457%
CC(=O)N(C)c1nc(CN2CCOC(Cn3cccn3)C2)cs1 (centres undefined)	-4.847%	-9.524%	0.7632%	8.316%
Cc1ncc(S(=O)(=O)Nc2ccnn2C(C)C)[nH]1	-4.748%	-5.736%	4.943%	14.9%
O=C(c1cc(Cl)cc(Cl)c1)N1CCN(c2nccs2)CC1	-1.314%	-	0.1971%	10.87%
CN1CCCC1CNC(=O)CCCOc1ccc(Br)cc1 (centres undefined)	7.273%	-3.337%	-1.462%	1.901%
Clc1ccc(CN2CCc3c(ncn3C3CC3)C2)c2ncccc12	-2.999%	-50.94%	0.1881%	1.339%
O=S(=O)(C1CC1)N1CCC2(CC1)CN(Cc1nccs1)CCO2	-	-21.35%	8.103%	2.664%

For reference, 3 entries once more:

* Cc1nn(-c2ccccc2Cl)c(C)c1CCC(=O)NCCS(C)(=O)=O | A: 1.963%; B: -0.8211%; C: 0.636%; D: 1.699%
* CC1CN(C)CCN1Cc1cccc(C(=O)NCc2ccco2)c1 (centres undefined) | A: -2.406%; B: -10.16%; C: 5.813%; D: -5.305%
* CCc1nnc(CNCC2CCN(CC(O)c3ccccc3)CC2)o1 (centres undefined) | A: -42.58%; B: -11.82%; C: -6.194%; D: -2.089%